Source: article doi:10.1101/846477
Read-outs that look alike come from different tables or passages of the source. Results are given in words; binding and its absence hold for the method and conditions named. In cells and extracts the contact can be indirect. These calls come from enrichment with a bait or labelling near it, and not all partners need be listed.

Chains of the proteins cited; added tags and fusions are not shown.
UniProt O94874: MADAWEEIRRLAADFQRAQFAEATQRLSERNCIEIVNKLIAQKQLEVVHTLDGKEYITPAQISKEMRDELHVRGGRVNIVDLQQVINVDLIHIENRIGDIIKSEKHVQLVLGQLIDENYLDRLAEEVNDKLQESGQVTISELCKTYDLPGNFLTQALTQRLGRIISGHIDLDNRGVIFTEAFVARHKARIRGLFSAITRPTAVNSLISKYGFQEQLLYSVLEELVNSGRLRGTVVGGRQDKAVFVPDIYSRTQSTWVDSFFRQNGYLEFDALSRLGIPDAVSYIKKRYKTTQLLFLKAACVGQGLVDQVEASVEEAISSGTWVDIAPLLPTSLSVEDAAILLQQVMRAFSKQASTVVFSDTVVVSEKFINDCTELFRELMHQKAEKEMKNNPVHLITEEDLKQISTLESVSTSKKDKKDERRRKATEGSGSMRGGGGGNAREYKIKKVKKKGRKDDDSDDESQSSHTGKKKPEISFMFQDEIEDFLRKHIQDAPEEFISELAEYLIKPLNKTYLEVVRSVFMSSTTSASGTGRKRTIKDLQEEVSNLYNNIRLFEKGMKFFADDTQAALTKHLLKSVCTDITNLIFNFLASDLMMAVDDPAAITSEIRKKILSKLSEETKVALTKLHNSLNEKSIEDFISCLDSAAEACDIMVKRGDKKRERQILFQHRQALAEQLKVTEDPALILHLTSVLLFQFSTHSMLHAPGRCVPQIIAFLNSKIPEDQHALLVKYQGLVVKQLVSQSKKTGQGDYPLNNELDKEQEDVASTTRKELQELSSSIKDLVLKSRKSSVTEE

Assays:
BirA-UFL1 [1] = molecular target: BirA-UFL1 (UniProt O94874); test: proximity labelling
BirA-UFL1 [2] = molecular target: BirA-UFL1 (UniProt O94874); test: proximity labelling; remark: listed apart in the source

- binding (BirA-UFL1 [1]): binds
- binding (BirA-UFL1 [2]): binds
B1: UFSP2 (enzyme, UniProt Q9NUQ7 1-469)
chain: MVISESMDILFRIRGGLDLAFQLATPNEIFLKKALKHVLSDLSTKLSSNALVFRICHSSVYIWPSSDINTIPGELTDASACKNILRFIQFEPEEDIKRKFMRKKDKKLSDMHQIVNIDLMLEMSTSLAAVTPIIERESGGHHYVNMTLPVDAVISVAPEETWGKVRKLLVDAIHNQLTDMEKCILKYMKGTSIVVPEPLHFLLPGKKNLVTISYPSGIPDGQLQAYRKELHDLFNLPHDRPYFKRSNAYHFPDEPYKDGYIRNPHTYLNPPNMETGMIYVVQGIYGYHHYMQDRIDDNGWGCAYRSLQTICSWFKHQGYTERSIPTHREIQQALVDAGDKPATFVGSRQWIGSIEVQLVLNQLIGITSKILFVSQGSEIASQGRELANHFQSEGTPVMIGGGVLAHTILGVAWNEITGQIKFLILDPHYTGAEDLQVILEKGWCGWKGPDFWNKDAYYNLCLPQRPNMI
